The results in this text go back to publication PMC7958565.

Protein sequences, listed by entry. Tags and fused reporters are not part of them.
UniProt P0DTC3: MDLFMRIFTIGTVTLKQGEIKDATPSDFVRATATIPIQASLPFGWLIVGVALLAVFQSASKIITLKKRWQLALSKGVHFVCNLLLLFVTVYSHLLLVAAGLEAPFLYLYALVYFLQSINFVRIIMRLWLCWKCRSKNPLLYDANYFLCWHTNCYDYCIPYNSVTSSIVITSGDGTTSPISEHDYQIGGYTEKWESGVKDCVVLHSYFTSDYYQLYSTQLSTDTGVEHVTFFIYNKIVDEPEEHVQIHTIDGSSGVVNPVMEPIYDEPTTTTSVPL
UniProt Q86WV6: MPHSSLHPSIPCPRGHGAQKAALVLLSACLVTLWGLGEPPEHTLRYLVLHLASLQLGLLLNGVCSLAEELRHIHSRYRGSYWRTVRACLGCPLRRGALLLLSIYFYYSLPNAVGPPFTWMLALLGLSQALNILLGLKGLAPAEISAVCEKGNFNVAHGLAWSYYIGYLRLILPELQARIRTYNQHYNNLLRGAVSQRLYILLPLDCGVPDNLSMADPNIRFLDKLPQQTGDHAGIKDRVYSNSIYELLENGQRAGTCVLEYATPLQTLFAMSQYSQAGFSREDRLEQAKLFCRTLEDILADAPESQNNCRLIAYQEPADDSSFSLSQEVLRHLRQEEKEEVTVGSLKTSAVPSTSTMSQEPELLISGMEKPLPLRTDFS

The assay deals with SARS-CoV-2 ORF3a with a C-terminal HA tag (SARS-CoV-2) (UniProt P0DTC3). As to the kind of experiment: co-IP.

No constants are given. Whether binding was seen depends on the method and setting. In cells and extracts the contact can be indirect. Some results given as binding are weak or reduced against the parent protein; the word gives no strength.

With “full-length (wild-type) STING detected by anti-GFP (from UniProt Q86WV6 1-379)”, the binding entry was “binds”.
